# Results taken from article doi:10.1101/2021.06.16.448340 (bioRxiv, 2021).
# Results are given in words; binding and its absence hold for the method and conditions named. Some binding calls cover weakened binding; strength is not graded here.
# B1: QcrC, di-heme cyt. cc subunit of complex III (protein, UniProt Q8NNK5 1-283)
# chain: MAKPSAKKVKNRRKVRRTVAGALALTIGLSGAGILATAITPDAQVATAQRDDQALISEGKDLYDVACITCHGVNLQGVEDRGPSLVGVGEGAVYFQVHSGRMPILRNEAQAERKAPRYTEAQTLAIAAYVAANGGGPGLVYNEDGTLAMEELRGENYDGQITSADVARGGDLFRLNCASCHNFTGRGGALSSGKYAPNLDAANEQEIYQAMLTGPQNMPKFSDRQLSADEKKDIIAFIKSTKETPSPGGYSLGSLGPVAEGLFMWVFGILVLVAAAMWIGSRS
# Columns and labels:
# [1] = biological target: T1, QcrB, cytochrome b subunit of complex III (Corynebacterium glutamicum) (UniProt Q79VE9); assay: cryo-EM structure
# T1 sequence: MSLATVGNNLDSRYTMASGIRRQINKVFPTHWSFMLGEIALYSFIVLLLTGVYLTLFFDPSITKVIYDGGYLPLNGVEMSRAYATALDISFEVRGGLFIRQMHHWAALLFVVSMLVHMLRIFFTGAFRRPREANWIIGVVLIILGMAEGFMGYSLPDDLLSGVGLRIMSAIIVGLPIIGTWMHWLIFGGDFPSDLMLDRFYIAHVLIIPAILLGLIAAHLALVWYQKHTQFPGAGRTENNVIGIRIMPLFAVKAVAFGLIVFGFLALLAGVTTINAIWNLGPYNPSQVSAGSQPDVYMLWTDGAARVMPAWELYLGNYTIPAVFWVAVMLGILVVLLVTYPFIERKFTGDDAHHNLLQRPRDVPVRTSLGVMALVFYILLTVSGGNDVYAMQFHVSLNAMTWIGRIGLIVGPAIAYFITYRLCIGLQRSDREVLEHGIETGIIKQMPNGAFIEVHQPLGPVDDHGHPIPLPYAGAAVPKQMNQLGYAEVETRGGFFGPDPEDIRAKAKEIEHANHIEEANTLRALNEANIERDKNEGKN
# [2] = biological target: T2, QcrA, Rieske iron-sulfur (FeS) protein subunit of complex III (Corynebacterium glutamicum) (UniProt Q79VE8); assay: cryo-EM structure
# T2 sequence: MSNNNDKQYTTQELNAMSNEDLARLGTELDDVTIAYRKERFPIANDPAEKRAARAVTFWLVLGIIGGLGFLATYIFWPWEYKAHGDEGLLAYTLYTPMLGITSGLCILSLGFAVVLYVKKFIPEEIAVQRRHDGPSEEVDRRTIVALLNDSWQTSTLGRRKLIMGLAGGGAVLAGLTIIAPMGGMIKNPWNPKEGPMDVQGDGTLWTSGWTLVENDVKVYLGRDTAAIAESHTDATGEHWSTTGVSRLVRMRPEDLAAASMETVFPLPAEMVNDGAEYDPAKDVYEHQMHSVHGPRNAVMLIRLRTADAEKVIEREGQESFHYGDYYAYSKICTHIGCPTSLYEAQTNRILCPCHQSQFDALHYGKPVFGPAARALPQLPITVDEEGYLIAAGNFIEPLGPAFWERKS
binder,measurement,setting,value
B1,binding,[1],binds
same,binding,[2],binds
